Results as given in the supplement of paper PMC8104966.
This is one part of the list. Repeats in this data set agree poorly, so a single value says little.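 U2OS cells carrying ACE2 were mixed with U2OS cells carrying full-length spike, and fusion was scored by imaging as the share of nuclei showing both cell types' fluorescent markers. A compound counts as an inhibitory hit when it is non-toxic and its fusion z-score falls below -3, meaning more than three standard deviations below the plate's DMSO wells.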

tested on: U2OS ACE2 x SARS-CoV-2 spike co-culture; assay: cell-cell fusion (fraction fused) z-score vs plate DMSO control; higher = more fusion; details: 30 µM; 5 h; toxicity class: non-toxic, passed QC

SMILES | cell-cell fusion (z-score)
C=C(c1ccc(C(=O)O)cc1)c1cc2c(cc1C)C(C)(C)CCC2(C)C [Bexarotene] | inactive: 0.123
Cl.NCCc1ccc(O)cc1 [4-Hydroxyphenethylamine hydrochloride] | inactive: -0.0809
NC(=O)NS(=O)(=O)c1ccc(N)cc1 | inactive: 2.03
CCC(=O)O[C@]1(C(=O)SCF)[C@H](C)C[C@H]2[C@@H]3C[C@H](F)C4=CC(=O)C=C[C@]4(C)[C@@]3(F)[C@@H](O)C[C@@]21C [Fluticasone propionate] | inactive: 4.03
CN(C)CC/C=C1/c2ccccc2Sc2cc(Cl)ccc21.Cl [Chlorprothixene hydrochloride] | inactive: 0.216
Cc1c(Cn2c(C)nc3c(C(=O)O)cc(N4CCOCC4)cc32)cccc1C(F)(F)F | inactive: -2.15
C1COC(NC(C2CC2)C2CC2)=N1 [Rilmenidine hemifumarate] | inactive: 1.06
Cl.OC(CCCN1CCCCC1)(c1ccccc1)c1ccccc1 [Diphenidol hydrochloride] | inactive: 3.61
CNC(=O)c1cc2c(cn1)[nH]c1ccccc12 [N-Methyl-beta-carboline-3-carboxamide] | inactive: 2.94
Cc1ccc(C)c(OCCCC(C)(C)C(=O)O)c1 [Gemfibrozil] | inactive: 2.72
CC(C)(C)C(O)/C=C/c1ccc2c(c1)OCO2 (configuration not stated) [Stiripentol] | inactive: 1.89
COc1ccc(-c2ccc3cc(C(=O)O)ccc3c2)cc1C12CC3CC(CC(C3)C1)C2 | inactive: 0.325
CC(C)[C@@H]1CC[C@@H](C)C[C@H]1O [L-Menthol] | inactive: 1.1
CC(C)[C@@H]1CC[C@@H](C)C[C@H]1O | inactive: 2.32
Clc1ccc(COC(Cn2ccnc2)c2ccc(Cl)cc2Cl)cc1.O=[N+]([O-])O (configuration not stated) [Econazole nitrate] | active: -3.24
COC(=O)N[C@H](C(=O)N1CCC[C@H]1c1nc2cc(F)c([C@H]3CC[C@H](c4cc5[nH]c([C@@H]6CCCN6C(=O)[C@@H](NC(=O)OC)[C@@H](C)OC)nc5cc4F)N3c3cc(F)c(N4CCC(c5ccc(F)cc5)CC4)c(F)c3)cc2[nH]1)[C@@H](C)OC | inactive: 2.68
COCCCOc1cc(C[C@@H](C[C@H](N)[C@@H](O)C[C@H](C(=O)NCC(C)(C)C(N)=O)C(C)C)C(C)C)ccc1OC.O=C(O)/C=C/C(=O)O | inactive: 1.01
COc1cc(NS(=O)(=O)c2ccc(N)cc2)nc(OC)n1 | inactive: 2.24
OC[C@H](O)C(O)[C@@H](O)CO | inactive: 2.48
C=C1C(=O)O[C@@H]2C[C@@]3(C)CCC[C@H](C)C3=C[C@H]12 | inactive: -0.00999
C[C@H](Nc1ncnc2[nH]cnc12)c1cc2cccc(Cl)c2c(=O)n1-c1ccccc1 | inactive: -1.04

3 entries from above, reformatted:
SMILES,cell-cell fusion (z-score)
C=C(c1ccc(C(=O)O)cc1)c1cc2c(cc1C)C(C)(C)CCC2(C)C [Bexarotene],inactive: 0.123
Cl.NCCc1ccc(O)cc1 [4-Hydroxyphenethylamine hydrochloride],inactive: -0.0809
NC(=O)NS(=O)(=O)c1ccc(N)cc1,inactive: 2.03

(next part)

SMILES | cell-cell fusion (z-score)
CN[C@@H]1C(OC2[C@H](O[C@H]3[C@H](O)[C@@H](O)[C@H](NC(=N)N)[C@@H](O)[C@@H]3NC(=N)N)OC(C)[C@]2(O)CO)OC(CO)C(O)C1O (some centres not stated) | inactive: 2.84
[O-][n+]1cccc(CO)c1 | inactive: 3.47
C=C1C(=O)[C@]23[C@H](O)[C@H]1CC[C@H]2[C@@]12CO[C@@]3(O)[C@H](O)[C@@H]1C(C)(C)CC[C@@H]2O | inactive: 2.81
CC(C)=CC1C(C(=O)O)C1(C)C (configuration not stated) | inactive: 1.48
CCCCC(=O)O[C@]1(C(=O)CO)[C@@H](C)CC2C3CCC4=CC(=O)C=C[C@]4(C)[C@@]3(F)C(O)C[C@@]21C (some centres not stated) | inactive: 0.631
CC(=O)O[C@H]1C[C@@H](OC(C)=O)C(C)(C)C2C[C@@H](OC(C)=O)[C@]3(C)C(CC[C@@]4(C)[C@H](c5ccoc5)C(=O)[C@H]5O[C@]543)[C@]21C (some centres not stated) | inactive: 3.37
COC(=O)C1=C(C)NC(C)=C(C(=O)OCC(C)C)C1c1ccccc1[N+](=O)[O-] (configuration not stated) | inactive: 3.51
CC(=O)SCC[N+](C)(C)C.[Cl-] [Acetylthiocholine chloride] | inactive: 2.56
C[C@H](N[C@@H](CCc1ccccc1)C(=O)O)C(=O)N1CCC[C@H]1C(=O)O.O.O [Enalaprilat Dihydrate] | inactive: 1.1
O=C(/C=C/C(=O)Oc1ccccc1C(=O)O)Oc1ccccc1C(=O)O | inactive: 2.46
COc1ccc2cccc(CCNC(C)=O)c2c1 [Agomelatine] | inactive: 1.72
COc1cc(CNC(=O)CCCCCCC(C)C)ccc1O [Dihydrocapsaicin] | inactive: 2.5
Clc1cnc(Oc2ccc(Oc3ncc(Cl)cc3Cl)cc2)c(Cl)c1 | inactive: 0.215
Cc1c(C(=O)Nc2ccc(N3C[C@@H](C)O[C@@H](C)C3)nc2)cccc1-c1ccc(OC(F)(F)F)cc1 [LDE225 (NVP-LDE225, Erismodegib)] | inactive: 1.14
CC[C@@]1(O)C(=O)OCc2c1cc1n(c2=O)Cc2cc3ccccc3nc2-1 [(S)-(+)-Camptothecin] | inactive: -0.00556
CC[C@@]1(O)C(=O)OCc2c1cc1n(c2=O)Cc2cc3ccccc3nc2-1 | inactive: 1.96
C=CC(C1=CC(=O)C(OC)=CC1=O)c1ccc(OC)cc1 (configuration not stated) | inactive: 2.34
Cc1cc(/C=C/c2ccc3cc(N(C)C)ccc3[n+]2C)c(C)n1-c1ccccc1.O=C([O-])c1cc2ccccc2c(Cc2c(O)c(C(=O)O)cc3ccccc23)c1O | inactive: 3.32
COC(=O)[C@H]1[C@H]2C[C@@H]3c4[nH]c5cc(OC)ccc5c4CCN3C[C@H]2C[C@@H](OC(=O)c2cc(OC)c(OC)c(OC)c2)[C@@H]1OC | inactive: 2.76
CC(C)C(=O)Nc1ccc([N+](=O)[O-])c(C(F)(F)F)c1 | inactive: 2.79
CC(C)C(=O)Nc1ccc([N+](=O)[O-])c(C(F)(F)F)c1 [Flutamide] | inactive: 1.83
